These are yes or no findings as the source states them, for the method shown. A result given as binding can be weak or reduced; the word gives no strength.
Target: RAD51AP1^DM mutant (human) (UniProt Q96B01)
Experiment: pull-down; GST or MBP-tagged RAD51AP1 (2 ug) and Strep II-tagged UAF1 (2 ug) in 30 ul of 25 mM Tris-HCl pH 7.5, 10% glycerol, 0.5 mM EDTA, 0.01% Igepal, 1 mM DTT, 150 mM KCl for 30 min; captured on glutathione or amylose resin at 4 C for 1 h; SDS eluate on SDS-PAGE, Coomassie Blue; both purified

The chains behind the UniProt entries cited, without tags or fusion partners. Where a name states a change or a piece, a line headed by the entry shows the natural chain unless it says otherwise.
UniProt Q96B01: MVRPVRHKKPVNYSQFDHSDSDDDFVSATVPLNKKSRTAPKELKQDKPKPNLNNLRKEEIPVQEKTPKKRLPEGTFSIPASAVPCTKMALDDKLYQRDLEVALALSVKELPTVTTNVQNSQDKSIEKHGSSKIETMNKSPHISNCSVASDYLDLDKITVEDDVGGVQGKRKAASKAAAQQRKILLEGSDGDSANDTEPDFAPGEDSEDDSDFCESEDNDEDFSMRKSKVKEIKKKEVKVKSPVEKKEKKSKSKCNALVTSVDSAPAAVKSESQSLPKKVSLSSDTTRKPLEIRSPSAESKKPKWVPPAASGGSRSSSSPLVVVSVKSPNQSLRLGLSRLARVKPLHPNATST
UniProt Q8TAF3: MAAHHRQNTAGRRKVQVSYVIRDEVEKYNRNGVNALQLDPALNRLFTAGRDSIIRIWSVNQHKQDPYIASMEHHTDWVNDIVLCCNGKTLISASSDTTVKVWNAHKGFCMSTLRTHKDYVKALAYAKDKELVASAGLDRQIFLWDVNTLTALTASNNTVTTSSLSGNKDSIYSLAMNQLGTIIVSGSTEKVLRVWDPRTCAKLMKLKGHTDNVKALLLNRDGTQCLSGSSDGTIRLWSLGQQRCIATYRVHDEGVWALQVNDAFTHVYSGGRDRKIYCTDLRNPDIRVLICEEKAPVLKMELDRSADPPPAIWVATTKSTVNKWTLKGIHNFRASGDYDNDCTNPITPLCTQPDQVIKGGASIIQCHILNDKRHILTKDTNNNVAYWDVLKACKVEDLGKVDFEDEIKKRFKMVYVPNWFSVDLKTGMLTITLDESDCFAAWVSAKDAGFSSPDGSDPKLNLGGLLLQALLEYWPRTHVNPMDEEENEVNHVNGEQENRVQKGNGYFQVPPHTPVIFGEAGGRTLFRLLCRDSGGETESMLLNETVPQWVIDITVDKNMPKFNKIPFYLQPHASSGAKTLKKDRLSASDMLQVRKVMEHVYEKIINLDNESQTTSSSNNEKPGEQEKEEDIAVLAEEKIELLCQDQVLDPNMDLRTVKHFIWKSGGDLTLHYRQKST

UAF1 (from UniProt Q8TAF3 1-677)
binding: binds
